Data: patent US10215752B2, “Nanotube array for optical detection of protein-protein interactions” (MASSACHUSETTS INSTITUTE OF TECHNOLOGY, priority 2010, dated 2019)

How the values were obtained:
antiHis Ab = assay: Protein-protein interaction on SWNT/CHI array, Förster distance calculation; conditions: distance change after analyte protein antiHis Ab, Förster equation
[1] = test system: Ni-NTA functionalized SWNT/CHI array; assay: On-chip cell-free expression and immobilization of His-tag capture proteins, nIR fluorescence of SWNT/CHI array; conditions: distance change between Ni2+ ion and SWNT after receptor protein, Förster resonance energy transfer equation

| Molecule | Δd2 (antiHis Ab) | Δd1 [1] [nm] |
| --- | --- | --- |
| Ada: E. coli protein (ExPASy P06134), cell-free expressed with C-terminal His-tag (protein) MKKATCLTDDQRWQSVLARDPNADGEFVFAVRTTGIFCRPSCRARHALRENVSFYANASEALAAGFRPCKRCQPEKANAQQHRLDKITHACRLLEQETPVTLEALADQVAMSPFHLHRLFKATTGMTPKAWQQAWRARRLRESLAKGESVTTSILNAGFPDSSSYYRKADETLGMTAKQFRHGGENLAVRYALADCELGRCLVAESERGICAILLGDDDATLISELQQMFPAADNAPADLMFQQHVREVIASLNQRDTPLTLPLDIRGTAFQQQVWQALRTIPCGETVSYQQLANAIGKPKAVRAVASACAANKLAIIIPCHRVVRGDGTLSGYRWGVSRKAQLLRREAENEERHHHHHH | −0.02568 | 0.1508 |
| CDK4: human derived protein (ExPASy P11802), on-chip cell-free expressed with His-tag (protein, UniProt P11802 2-303, looked up, His-tag) Cyclin-dependent kinase 4: ATSRYEPVAEIGVGAYGTVYKARDPHSGHFVALKSVRVPNGGGGGGGLPISTVREVALLRRLEAFEHPNVVRLMDVCATSRTDREIKVTLVFEHVDQDLRTYLDKAPPPGLPAETIKDLMRQFLRGLDFLHANCIVHRDLKPENILVTSGGTVKLADFGLARIYSYQMALTPVVVTLWYRAPEVLLQSTYATPVDMWSVGCIFAEMFRRKPLFCGNSEADQLGKIFDLIGLPPEDDWPRDVSLPRGAFPPRGPRPVQSVVPEMEESGAQLLLEMLTFNPHKRISAFRALQHSYLHKDEGNPE |  | 0.07655 |
